# For at least one compound, name, drawing or mass did not settle the structure.
# System: fungus Aspergillus brasiliensis DSM 1988
# Test: Preservative activity in an enzyme (mannanase) solution of pH 6 with 2-phenoxyethanol (Example 1.4)
# Assay type: cell-based
# Details: 0.07% by weight amide alone, no PE
# Procedure: A enzyme solution of pH 6 containing the hydrolase mannanase of the following composition was used:
# The samples were contaminated with the fungus Aspergillus brasiliensis DSM 1988.
# The samples were inoculated with the fungus at day 0 and 15 to obtain 1-3×10E+05 CFU/ml inoculation in the test sample consisting of the above-defined enzyme solution and stored at 25° C. for 29 days. CFU was determined at days 0, 2, 7, 14, 15 (after re-inoculation), 22 and 29 (abbreviated d0, d2, d7, d14, d15, d22, d29).
# Any CFU value at d2, d7, d14, d22 or d29 obtained with an enzyme solution sample of the invention containing 2-phenoxyethanol and amide (enzyme solution+0.7% PE+0.07% of amide) lower than the respective value of the comparative example (enzyme solution+0.7% by weight of 2-phenoxyethanol) indicates a better performance of the inventive combination of 2-phenoxyethanol with the amide.
# The amide used was N,N-dimethyl-n-decanoyl amide (=n-decanoyl-N,N-dimethylamide).
smiles,measurement,value
"CCCCCCCCCC(=O)N(C)C [n-Decanoyl-N,N-dimethylamide]",preservative effect of the amide alone on the enzyme solution,does not have any preservative effect

# From patent US20250040539A1, “COMPOSITION COMPRISING AN ANTIMICROBIAL AGENT AND A CARBOXAMIDE” (BASF SE, priority 2021, published 2025)
